Source: publication PMC7862700
This is a selection; strong and weak results do not stand in their true shares. For part of these data: At the low end of the ranking the order means little. This is one part of the list. For part of these data: The exact form of the protein is not confirmed.

The chains behind the UniProt entries cited, without tags or fusion partners. Where a name states a change or a piece, a line headed by the entry shows the natural chain unless it says otherwise.
UniProt P32519: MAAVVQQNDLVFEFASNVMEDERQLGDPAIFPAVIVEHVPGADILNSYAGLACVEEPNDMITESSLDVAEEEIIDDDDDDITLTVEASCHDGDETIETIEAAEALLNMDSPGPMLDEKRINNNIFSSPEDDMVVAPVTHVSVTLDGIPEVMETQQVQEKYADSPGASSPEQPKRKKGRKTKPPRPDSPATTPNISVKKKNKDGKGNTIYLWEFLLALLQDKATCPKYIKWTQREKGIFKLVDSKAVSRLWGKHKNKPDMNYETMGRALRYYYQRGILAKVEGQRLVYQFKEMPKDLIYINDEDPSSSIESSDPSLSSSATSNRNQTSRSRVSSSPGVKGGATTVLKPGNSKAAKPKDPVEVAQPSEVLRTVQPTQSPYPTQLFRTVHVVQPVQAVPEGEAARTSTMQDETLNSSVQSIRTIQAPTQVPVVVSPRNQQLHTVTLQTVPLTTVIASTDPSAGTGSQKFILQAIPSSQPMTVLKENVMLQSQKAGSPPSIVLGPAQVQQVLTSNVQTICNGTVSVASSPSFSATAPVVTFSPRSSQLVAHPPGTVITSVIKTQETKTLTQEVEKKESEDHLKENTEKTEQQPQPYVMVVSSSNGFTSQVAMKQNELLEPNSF
UniProt P50549: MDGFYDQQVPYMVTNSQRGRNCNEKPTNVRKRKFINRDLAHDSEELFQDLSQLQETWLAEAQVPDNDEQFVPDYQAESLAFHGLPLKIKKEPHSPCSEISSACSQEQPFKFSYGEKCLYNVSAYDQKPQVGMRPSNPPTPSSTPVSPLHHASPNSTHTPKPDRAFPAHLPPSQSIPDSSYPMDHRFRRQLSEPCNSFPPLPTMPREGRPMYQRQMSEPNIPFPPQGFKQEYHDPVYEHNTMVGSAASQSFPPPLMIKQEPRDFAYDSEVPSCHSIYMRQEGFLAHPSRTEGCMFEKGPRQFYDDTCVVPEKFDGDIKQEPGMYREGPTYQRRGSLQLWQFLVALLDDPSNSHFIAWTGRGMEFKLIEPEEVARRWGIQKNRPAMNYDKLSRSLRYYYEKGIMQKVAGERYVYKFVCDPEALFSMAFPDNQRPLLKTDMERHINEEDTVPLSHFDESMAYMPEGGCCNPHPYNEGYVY

Tests used:
Test in all cases: DAPPL (digital affinity profiling via proximity ligation, sequencing)
Details in all cases: 10 mM Tris-HCl pH 7.5, 50 mM NaCl, 1 mM DTT, 4% glycerol, room temperature, 30 min; GST-TFs on glutathione beads, 16-mer random dsDNA library, 0.1% …; high values mean tight binding; double strand, one strand shown; scale: fold enrichment (6-mer frequency, TF over GST control)
ERG = molecular target: T1, ERG (UniProt P11308)
T1 sequence: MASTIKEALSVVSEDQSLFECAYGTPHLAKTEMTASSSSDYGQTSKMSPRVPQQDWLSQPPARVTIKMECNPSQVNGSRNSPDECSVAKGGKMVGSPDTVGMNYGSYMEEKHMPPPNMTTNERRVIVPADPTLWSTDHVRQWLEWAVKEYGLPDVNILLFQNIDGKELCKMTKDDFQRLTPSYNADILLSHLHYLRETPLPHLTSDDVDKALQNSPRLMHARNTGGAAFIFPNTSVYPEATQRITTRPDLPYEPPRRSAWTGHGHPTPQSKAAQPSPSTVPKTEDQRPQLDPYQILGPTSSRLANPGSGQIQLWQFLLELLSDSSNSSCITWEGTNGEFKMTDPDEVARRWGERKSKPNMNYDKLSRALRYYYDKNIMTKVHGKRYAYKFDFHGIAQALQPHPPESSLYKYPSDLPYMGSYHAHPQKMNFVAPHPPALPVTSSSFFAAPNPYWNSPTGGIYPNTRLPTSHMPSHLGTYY

ELF1 = ELF1 (UniProt P32519)
ELK4 = molecular target: T2, ELK4 (UniProt P28324-2)
T2 sequence: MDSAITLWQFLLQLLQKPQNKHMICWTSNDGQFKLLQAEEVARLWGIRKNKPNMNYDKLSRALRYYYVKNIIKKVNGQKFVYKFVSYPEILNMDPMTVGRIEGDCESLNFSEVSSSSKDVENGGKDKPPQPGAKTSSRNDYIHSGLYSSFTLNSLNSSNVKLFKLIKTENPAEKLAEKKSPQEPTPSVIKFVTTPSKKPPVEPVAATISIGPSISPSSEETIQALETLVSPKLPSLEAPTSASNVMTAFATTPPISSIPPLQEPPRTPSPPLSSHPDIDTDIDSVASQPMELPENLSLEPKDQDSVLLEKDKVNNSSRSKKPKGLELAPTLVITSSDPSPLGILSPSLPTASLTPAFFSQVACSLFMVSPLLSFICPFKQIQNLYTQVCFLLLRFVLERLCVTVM

ETV4 = molecular target: T3, ETV4 (UniProt P43268)
T3 sequence: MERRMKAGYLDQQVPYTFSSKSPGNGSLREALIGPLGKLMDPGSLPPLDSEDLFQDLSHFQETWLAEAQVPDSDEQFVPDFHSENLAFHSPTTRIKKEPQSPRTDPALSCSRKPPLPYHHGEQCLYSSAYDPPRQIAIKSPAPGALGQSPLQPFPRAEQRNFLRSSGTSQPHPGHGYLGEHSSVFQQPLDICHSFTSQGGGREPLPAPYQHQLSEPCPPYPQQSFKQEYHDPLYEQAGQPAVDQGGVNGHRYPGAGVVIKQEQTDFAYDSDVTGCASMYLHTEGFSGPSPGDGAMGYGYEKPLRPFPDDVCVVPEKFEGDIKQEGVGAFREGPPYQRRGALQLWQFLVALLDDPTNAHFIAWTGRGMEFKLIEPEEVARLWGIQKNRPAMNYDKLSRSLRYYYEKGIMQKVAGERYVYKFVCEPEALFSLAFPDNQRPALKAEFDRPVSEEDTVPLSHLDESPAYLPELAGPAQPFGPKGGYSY

ETV1 = ETV1 (UniProt P50549)
ERF = molecular target: T4, ERF (UniProt P50548)
T4 sequence: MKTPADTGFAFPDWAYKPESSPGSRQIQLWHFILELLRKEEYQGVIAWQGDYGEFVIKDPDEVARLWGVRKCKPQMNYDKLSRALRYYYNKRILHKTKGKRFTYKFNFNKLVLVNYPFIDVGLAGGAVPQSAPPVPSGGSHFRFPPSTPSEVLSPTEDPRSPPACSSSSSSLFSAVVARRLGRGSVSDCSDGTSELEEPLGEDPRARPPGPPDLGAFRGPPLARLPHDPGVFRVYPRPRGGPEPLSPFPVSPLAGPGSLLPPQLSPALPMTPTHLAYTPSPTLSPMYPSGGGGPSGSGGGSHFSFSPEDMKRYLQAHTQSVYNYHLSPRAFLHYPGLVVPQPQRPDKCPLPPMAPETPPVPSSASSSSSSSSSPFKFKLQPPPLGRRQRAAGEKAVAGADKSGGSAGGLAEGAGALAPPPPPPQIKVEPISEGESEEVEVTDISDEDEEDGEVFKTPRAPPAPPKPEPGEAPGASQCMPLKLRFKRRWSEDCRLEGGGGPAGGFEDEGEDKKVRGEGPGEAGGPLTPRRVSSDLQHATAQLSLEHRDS

Sequence | binding signal (ERG) | binding signal (ELF1) | binding signal (ELK4) | binding signal (ETV4) | binding signal (ETV1) | binding signal (ERF)
TGACAG | 0.953 | 0.948 | 0.968 | 0.995 | 0.948 | 0.971
GGCTGG | 0.764 | 0.784 | 0.813 | 0.81 | 0.706 | 0.741
GGCACA | 0.878 | 0.815 | 0.807 | 0.848 | 0.792 | 0.803
AGCCAT | 0.852 | 0.914 | 0.971 | 0.817 | 0.896 | 0.867
CATCGG | 0.699 | 0.709 | 0.764 | 0.771 | 0.678 | 0.686
GCAGCG | 0.822 | 0.823 | 0.865 | 0.857 | 0.831 | 0.807
CGGGAT | 0.614 | 0.622 | 0.684 | 0.598 | 0.663 | 0.644
GTAGTG | 0.714 | 0.796 | 0.82 | 0.709 | 0.828 | 0.797
GCAGAC | 0.729 | 0.694 | 0.717 | 0.69 | 0.728 | 0.69
AGAAAG | 0.838 | 0.857 | 0.904 | 0.823 | 0.825 | 0.88
TCGGAG | 0.2 | 0.204 | 0.195 | 0.185 | 0.184 | 0.196
CTGGGA | 0.808 | 0.808 | 0.802 | 0.892 | 0.797 | 0.796
GCCAGC | 0.769 | 0.758 | 0.787 | 0.772 | 0.62 | 0.733
ATGAGA | 0.846 | 0.799 | 0.953 | 0.776 | 0.824 | 0.922
GTGCGG | 0.642 | 0.645 | 0.551 | 0.637 | 0.617 | 0.634
TCGGGA | 0.396 | 0.368 | 0.383 | 0.389 | 0.381 | 0.397
GCATAA | 0.857 | 0.813 | 0.844 | 0.859 | 0.848 | 0.943
AGGGGG | 0.664 | 0.594 | 0.572 | 0.601 | 0.64 | 0.646
GGTGTC | 0.789 | 0.81 | 0.672 | 0.762 | 0.881 | 0.743
AGTTGT | 0.754 | 0.783 | 0.946 | 0.83 | 0.739 | 0.688
TAGACC | 0.822 | 0.87 | 0.787 | 0.864 | 0.815 | 0.856

Individual results from the entries so far.
AGTTGT | binding signal (ETV1): 0.739
ATGAGA | binding signal (ELF1): 0.799
